PubChem BioAssay AID1259308, NCATS | 2017

Assay: 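Knock-downs that increase output of a recombinant reporter protein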 (primary screen)
Cell system: human HEK293 embryonic kidney cells stably expressing firefly luciferase (HEK-CMV-Luc2-Hygro)
Reagent: single siRNA against human genes, 0.8 pmol siRNA per well
Timing: 72 h
Measured: 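Reporter luminescence and viable-cell signal on separate replicate plates, given as percent of non-targeting control and median/MAD z-scores, plus per-cell luciferase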
Scale: total luciferase, z-score: higher = more reporter protein produced
Hit rule: 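Active when the median/MAD z-score for overall luciferase is greater than 3; a gene was taken forward for validation with new siRNAs if at least two of its three siRNAs passed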
Calls: active = raised luciferase; inactive = no rise
In all, the deposit lists about 59,000 reagents; this is a random part of them. Over the whole deposit, about 1,510 (2.6%) are marked active. 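Calls use total luciferase alone and ignore viability, so some active siRNAs may act by altering cell number.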 Reagents against one gene are numbered here. Further read-outs or replicates are left out here.

total luciferase, z-score, by gene and reagent
TNK2 (tyrosine kinase non receptor 2): #1 -1.97 inactive; #2 0.246 inactive; #3 -1.29 inactive
FLCN (folliculin): #1 -0.337 inactive; #2 -0.526 inactive; #3 -0.774 inactive
POLR1A (RNA polymerase I subunit A): #1 0.273 inactive; #2 1.71 inactive; #3 -1.59 inactive
PCED1A (PC-esterase domain containing 1A): #1 0.94 inactive; #2 -0.0251 inactive; #3 -0.511 inactive
RANBP9 (RAN binding protein 9): #1 0.0947 inactive; #2 0.0916 inactive; #3 2.09 inactive
THSD4 (thrombospondin type 1 domain containing 4): #1 -1.89 inactive; #2 0.736 inactive; #3 -0.488 inactive
TPMT (thiopurine S-methyltransferase): #1 -0.137 inactive; #2 2.65 inactive; #3 0.855 inactive
SCMH1 (Scm polycomb group protein homolog 1): #1 1.61 inactive; #2 1.76 inactive; #3 -0.36 inactive
